# Results taken from the supplement of paper PMC6331611.
# ± gives the standard deviation of the averaged measurements. Whole data set: some 1,600 compounds, median “normalized growth (OD600, IQM-normalized) in LPM” near 1, cut for the lowest 2% near 0.014. The list shows a part of the results.
# Test system: Salmonella enterica serovar Typhimurium SL1344
# Assay: normalized growth (OD600, IQM-normalized) in LPM (fraction of plate interquartile mean); higher = more bacterial growth (less inhibition)
# Settings: LPM pH 5.8; 10 µM; 16 h
row,Compound,normalized growth
1,Cc1nc(Nc2ncc(C(=O)Nc3c(C)cccc3Cl)s2)cc(N2CCN(CCO)CC2)n1,1.11 ± 0.17
2,CCN(CCO)CCCC(C)Nc1ccnc2cc(Cl)ccc12 (stereo not drawn),0.947 ± 0.068
3,CN(C)c1ccc(C(=C2C=CC(=[N+](C)C)C=C2)c2ccc(N(C)C)cc2)cc1,0.992 ± 0.034
4,CC(=O)[C@H]1CC[C@H]2[C@@H]3CC=C4C[C@@H](O)CC[C@]4(C)[C@H]3CC[C@]12C,0.938 ± 0.086
5,COc1ccc(CC2c3cc(OC)c(OC)cc3CC[N+]2(C)CCC(=O)OCCCCCOC(=O)CC[N+]2(C)CCc3cc(OC)c(OC)cc3C2Cc2ccc(OC)c(OC)c2)cc1OC (stereo not drawn),0.986 ± 0.015
6,Cc1nc(-c2ccc(OCC(C)C)c(C#N)c2)sc1C(=O)O,1.02 ± 0.038
7,CC(COc1ccccc1)NC(C)C(O)c1ccc(O)cc1 (stereo not drawn),1 ± 0.016
8,CC(C)(C)c1ccc(C(O)CCCN2CCC(C(O)(c3ccccc3)c3ccccc3)CC2)cc1 (stereo not drawn),0.8844 ± 0.0053
9,CCOC(=O)NNc1nncc2ccccc12,1.15 ± 0.049
10,CO/N=C1\C[C@]2(C[C@@H]3C[C@@H](C/C=C(\C)C[C@@H](C)/C=C/C=C4\CO[C@@H]5[C@H](O)C(C)=C[C@@H](C(=O)O3)[C@]45O)O2)O[C@H](/C(C)=C/C(C)C)[C@H]1C,0.91 ± 0.038
11,CCCCN1CCCCC1C(=O)Nc1c(C)cccc1C (stereo not drawn),1.05 ± 0.033
12,COc1ccnc(C[S+]([O-])c2nc3cc(OC(F)F)ccc3[nH]2)c1OC (stereo not drawn),0.889 ± 0.0098
13,Nc1ccn([C@@H]2O[C@H](CO)[C@@H](O)[C@@H]2O)c(=O)n1,1.01 ± 0.067
14,O=c1[nH]c(=O)c2ccccc2o1,0.902 ± 0.03
15,Nc1ccc(S(=O)(=O)Nc2ccccn2)cc1,0.992 ± 0.025
16,CO[C@H]1C[C@H](O[C@H]2[C@H](C)[C@@H](O[C@@H]3O[C@H](C)C[C@H](N(C)C)[C@H]3O)[C@@H](C)C[C@@]3(CO3)C(=O)[C@H](C)[C@@H](O)[C@@H](C)[C@@H](C)OC(=O)[C@@H]2C)O[C@@H](C)[C@@H]1O,0.94 ± 0.074
17,CN(C)CCCN1c2ccccc2Sc2ccc(Cl)cc21,1.06 ± 0.15
18,O=c1ccc2ccccc2o1,0.926 ± 0.037
19,COc1cc([C@@H]2c3cc4c(cc3[C@@H](O[C@@H]3O[C@@H]5CO[C@@H](c6cccs6)O[C@H]5[C@H](O)[C@H]3O)[C@H]3COC(=O)[C@H]23)OCO4)cc(OC)c1O,0.882 ± 0.027
20,O=c1[nH]cnc2c1ncn2[C@@H]1O[C@H](CO)[C@@H](O)[C@H]1O,1.13 ± 0.034
21,N[C@@H](Cc1ccc(O)cc1)C(=O)O,0.979 ± 0.02
22,O=C(COc1ccc(Cl)cc1)N1CCN(Cc2ccc3c(c2)OCO3)CC1,0.928 ± 0.019
23,CCN(CC)CCNc1ccc(CO)c2sc3ccccc3c(=O)c12,0.916 ± 0.067
24,CCOc1ccc2nc3cc(N)ccc3c(N)c2c1,0.799 ± 0.086

# Some of the entries so far, tab-delimited.
row	Compound	normalized growth
17	CN(C)CCCN1c2ccccc2Sc2ccc(Cl)cc21	1.06 ± 0.15
18	O=c1ccc2ccccc2o1	0.926 ± 0.037
19	COc1cc([C@@H]2c3cc4c(cc3[C@@H](O[C@@H]3O[C@@H]5CO[C@@H](c6cccs6)O[C@H]5[C@H](O)[C@H]3O)[C@H]3COC(=O)[C@H]23)OCO4)cc(OC)c1O	0.882 ± 0.027

# Additional structures follow:

row,Compound,normalized growth
1,Nc1nc(NC2CC2)c2ncn([C@H]3C=C[C@@H](CO)C3)c2n1,0.9084 ± 0.0021
2,CN(C)c1ccc(O)c2c1C[C@H]1C[C@H]3[C@H](N(C)C)C(O)=C(C(N)=O)C(=O)[C@@]3(O)C(O)=C1C2=O,0.0111 ± 0.00049
3,CCCCCCCCCCCCCCCCOP(=O)([O-])OCC[N+](C)(C)C,0.911 ± 0.023
4,Cc1ccsc1/C=C/C1=NCCCN1C,1.096 ± 0.0076
5,Cc1ccc(S(=O)(=O)NC(=O)NN2CCCCCC2)cc1,0.949 ± 0.02
6,COc1cccc(OC)c1C(=O)N[C@@H]1C(=O)N2[C@@H]1SC(C)(C)[C@@H]2C(=O)O,1.12 ± 0.019
7,C[C@]12CC[C@@H]3c4ccc(OS(=O)(=O)O)cc4CC[C@H]3[C@@H]1CCC2=O,1.06 ± 0.065
8,CCN(CC)CCOC(=O)C(c1ccccc1)c1ccccc1,1.12 ± 0.041
9,CCOC(=O)c1ccc(N)cc1,0.96 ± 0.015
10,CC(C)(C)CC(C)(C)c1ccc(O)c(Cc2ccc(Cl)cc2Cl)c1,0.861 ± 0.066
11,COc1cc(NC(C)CCCN)c2ncccc2c1 (stereo not drawn),0.937 ± 0.025
12,CCCCC1(COC(=O)CCC(=O)O)C(=O)N(c2ccccc2)N(c2ccccc2)C1=O,1.04 ± 0.39
13,CN(C)[C@@H]1C(O)=C(C(N)=O)C(=O)[C@@]2(O)C(O)=C3C(=O)c4c(O)cccc4[C@@](C)(O)[C@H]3[C@H](O)[C@@H]12,0.0138 ± 0.00025
14,NC(N)=Nc1nc(CSCC/C(N)=N/S(N)(=O)=O)cs1,1.13 ± 0.025
15,Cc1cc(-c2ccccc2)nnc1NCCN1CCOCC1,0.921 ± 0.13
16,CSc1ccc2c(c1)N(CCC1CCCCN1C)c1ccccc1S2 (stereo not drawn),1.17 ± 0.051
17,CC1=C(/C=C/C(C)=C/C=C/C(C)=C\C(=O)O)C(C)(C)CCC1,0.957 ± 0.099
18,CC/C(=C(/CC)c1ccc(O)cc1)c1ccc(O)cc1,0.988 ± 0.036
19,Cl.N=C(N)NCCC[C@H](N)C(=O)O,1 ± 0.042
20,C=CCOC(Cn1ccnc1)c1ccc(Cl)cc1Cl (stereo not drawn),1.11 ± 0.033
21,CC1(C)[C@@H](OC(=O)CCC(=O)O)CC[C@]2(C)[C@H]3C(=O)C=C4[C@@H]5C[C@@](C)(C(=O)O)CC[C@]5(C)CC[C@@]4(C)[C@]3(C)CC[C@@H]12,0.84 ± 0.068
22,CC(CN(C)C)CN1c2ccccc2Sc2ccccc21 (stereo not drawn),0.862 ± 0.044
23,C#C[C@]1(O)CC[C@H]2[C@@H]3CCC4=CC(=O)CC[C@@H]4[C@H]3CC[C@@]21CC,1.16 ± 0.084
24,CC(C)CCCC(C)NC(C)C (stereo not drawn),0.993 ± 0.022
